# No constants are given. Whether binding was seen depends on the method and setting. Binding seen in cells or lysates may run through a third protein. Some results given as binding are weak or reduced against the parent protein; the word gives no strength. Where a sequence is shown, tags or fusion partners need not be part of it.
# Sequences of proteins named here, by UniProt entry; tags and fusion partners are left off. A change or cut given only in a name is not applied to a line headed by its entry.
# UniProt P06241: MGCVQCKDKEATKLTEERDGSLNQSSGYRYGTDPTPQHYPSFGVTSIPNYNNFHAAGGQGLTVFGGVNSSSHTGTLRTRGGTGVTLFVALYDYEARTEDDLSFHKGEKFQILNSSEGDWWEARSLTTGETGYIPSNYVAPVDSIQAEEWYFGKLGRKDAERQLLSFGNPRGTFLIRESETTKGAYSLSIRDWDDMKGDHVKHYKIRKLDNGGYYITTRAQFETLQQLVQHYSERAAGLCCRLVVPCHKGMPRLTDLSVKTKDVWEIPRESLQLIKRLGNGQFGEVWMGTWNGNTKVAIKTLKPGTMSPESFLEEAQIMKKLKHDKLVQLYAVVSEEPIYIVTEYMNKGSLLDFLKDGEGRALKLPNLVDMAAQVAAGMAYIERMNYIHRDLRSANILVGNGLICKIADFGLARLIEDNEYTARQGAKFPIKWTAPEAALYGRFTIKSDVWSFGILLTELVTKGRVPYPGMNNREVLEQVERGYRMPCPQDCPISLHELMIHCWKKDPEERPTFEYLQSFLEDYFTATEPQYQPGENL
# UniProt P05556: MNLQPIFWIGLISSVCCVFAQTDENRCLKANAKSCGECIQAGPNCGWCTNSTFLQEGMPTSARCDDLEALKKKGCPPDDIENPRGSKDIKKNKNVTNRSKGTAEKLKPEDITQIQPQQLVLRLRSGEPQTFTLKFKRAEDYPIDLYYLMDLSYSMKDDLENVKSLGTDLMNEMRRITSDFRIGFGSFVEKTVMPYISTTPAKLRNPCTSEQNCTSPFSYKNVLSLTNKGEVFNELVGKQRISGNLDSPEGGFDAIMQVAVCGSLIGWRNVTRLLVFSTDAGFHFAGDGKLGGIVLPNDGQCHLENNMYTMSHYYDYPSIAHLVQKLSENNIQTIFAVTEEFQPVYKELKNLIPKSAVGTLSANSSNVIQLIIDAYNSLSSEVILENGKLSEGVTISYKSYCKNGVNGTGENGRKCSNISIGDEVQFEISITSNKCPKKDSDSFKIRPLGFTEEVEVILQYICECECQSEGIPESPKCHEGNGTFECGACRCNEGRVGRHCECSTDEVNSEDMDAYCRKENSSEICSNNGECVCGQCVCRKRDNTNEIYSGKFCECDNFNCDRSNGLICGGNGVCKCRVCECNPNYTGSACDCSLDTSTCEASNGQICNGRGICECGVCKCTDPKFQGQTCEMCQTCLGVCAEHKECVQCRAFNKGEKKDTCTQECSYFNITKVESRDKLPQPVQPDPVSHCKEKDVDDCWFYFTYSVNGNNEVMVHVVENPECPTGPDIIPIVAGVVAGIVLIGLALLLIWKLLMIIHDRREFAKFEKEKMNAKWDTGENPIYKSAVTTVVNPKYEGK
# Biological target: T1, His-tagged TYMP (thymidine phosphorylase), recombinant (UniProt P19971)
# T1 sequence: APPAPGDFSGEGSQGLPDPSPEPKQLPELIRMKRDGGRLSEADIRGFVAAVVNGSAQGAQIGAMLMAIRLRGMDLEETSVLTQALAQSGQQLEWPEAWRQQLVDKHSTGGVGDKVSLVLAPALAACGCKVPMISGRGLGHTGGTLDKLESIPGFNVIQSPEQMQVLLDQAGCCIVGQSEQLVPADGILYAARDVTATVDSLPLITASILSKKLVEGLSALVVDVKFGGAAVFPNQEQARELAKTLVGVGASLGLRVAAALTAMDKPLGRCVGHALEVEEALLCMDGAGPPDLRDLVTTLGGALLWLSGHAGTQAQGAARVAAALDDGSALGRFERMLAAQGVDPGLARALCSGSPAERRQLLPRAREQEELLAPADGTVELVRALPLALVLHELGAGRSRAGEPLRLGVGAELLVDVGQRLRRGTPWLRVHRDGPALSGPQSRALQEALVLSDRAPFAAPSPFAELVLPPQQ
# Assay: pull-down; 10 ug His-tagged TYMP bound to His60 Ni magnetic beads, incubated 2 h with 1 mL human monocyte lysate (250 ug protein, EzRIPA lysis buffer), washed 3 times with PBST, then SDS-PAGE and Western blot; negative controls were lysate and beads without TYMP; only the target purified
row,binding,Substance
1,binds,tyrosine kinase FYN (from UniProt P06241 1-537) (enzyme)
2,binds,Integrin beta-1 (from UniProt P05556 21-798) (receptor)

# — paper PMC8459589
